# Values joined by “and” are separate entries in the source; they are usually repeats but may differ in a detail not shown here. Equal entries are not always repeated. The inconclusive results got no clear call from the source; some entries with a clear call stand among them for comparison. Potencies of inconclusive entries are doubtful fits and often do not repeat. Active and inactive are the calls of the source. The calls were made as follows: active = hit-call score of the fitted dose curve at least 0.9, where 1 is the maximum; inconclusive = response in the unintended direction; inactive = score below 0.9.
# Sequences of proteins named here, by UniProt entry; tags and fusion partners are left off. A change or cut given only in a name is not applied to a line headed by its entry.
# UniProt P19785, whole entry, looked up: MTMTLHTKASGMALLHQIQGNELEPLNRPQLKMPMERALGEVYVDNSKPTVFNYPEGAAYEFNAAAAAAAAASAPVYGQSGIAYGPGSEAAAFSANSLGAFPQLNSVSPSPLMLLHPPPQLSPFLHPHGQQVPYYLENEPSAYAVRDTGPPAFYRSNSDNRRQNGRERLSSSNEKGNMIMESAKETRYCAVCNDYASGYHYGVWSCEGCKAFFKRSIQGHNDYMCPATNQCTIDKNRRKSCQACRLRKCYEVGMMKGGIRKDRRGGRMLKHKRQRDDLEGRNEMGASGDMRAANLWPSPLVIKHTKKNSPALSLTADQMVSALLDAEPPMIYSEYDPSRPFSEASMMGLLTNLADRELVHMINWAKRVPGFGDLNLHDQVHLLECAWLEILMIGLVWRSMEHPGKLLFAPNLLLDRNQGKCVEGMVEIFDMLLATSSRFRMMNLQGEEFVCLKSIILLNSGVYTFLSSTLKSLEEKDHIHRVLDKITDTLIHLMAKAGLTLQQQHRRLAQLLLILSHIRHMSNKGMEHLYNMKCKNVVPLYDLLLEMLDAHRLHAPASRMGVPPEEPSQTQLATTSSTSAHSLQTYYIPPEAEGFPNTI
# UniProt Q96RI1: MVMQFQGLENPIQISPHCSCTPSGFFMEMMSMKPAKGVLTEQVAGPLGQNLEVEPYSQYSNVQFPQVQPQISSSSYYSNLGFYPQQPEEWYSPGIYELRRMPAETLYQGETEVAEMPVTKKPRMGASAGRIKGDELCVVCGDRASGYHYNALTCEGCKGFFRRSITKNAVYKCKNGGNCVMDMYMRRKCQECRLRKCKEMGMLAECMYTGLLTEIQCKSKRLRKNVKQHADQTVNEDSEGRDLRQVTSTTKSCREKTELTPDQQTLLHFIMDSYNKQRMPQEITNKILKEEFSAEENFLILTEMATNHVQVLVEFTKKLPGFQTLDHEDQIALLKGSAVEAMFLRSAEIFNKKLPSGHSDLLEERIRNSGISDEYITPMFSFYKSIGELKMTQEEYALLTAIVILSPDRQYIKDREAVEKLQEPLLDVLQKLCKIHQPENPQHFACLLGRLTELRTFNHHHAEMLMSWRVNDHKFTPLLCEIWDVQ
# UniProt Q92731, whole entry, looked up: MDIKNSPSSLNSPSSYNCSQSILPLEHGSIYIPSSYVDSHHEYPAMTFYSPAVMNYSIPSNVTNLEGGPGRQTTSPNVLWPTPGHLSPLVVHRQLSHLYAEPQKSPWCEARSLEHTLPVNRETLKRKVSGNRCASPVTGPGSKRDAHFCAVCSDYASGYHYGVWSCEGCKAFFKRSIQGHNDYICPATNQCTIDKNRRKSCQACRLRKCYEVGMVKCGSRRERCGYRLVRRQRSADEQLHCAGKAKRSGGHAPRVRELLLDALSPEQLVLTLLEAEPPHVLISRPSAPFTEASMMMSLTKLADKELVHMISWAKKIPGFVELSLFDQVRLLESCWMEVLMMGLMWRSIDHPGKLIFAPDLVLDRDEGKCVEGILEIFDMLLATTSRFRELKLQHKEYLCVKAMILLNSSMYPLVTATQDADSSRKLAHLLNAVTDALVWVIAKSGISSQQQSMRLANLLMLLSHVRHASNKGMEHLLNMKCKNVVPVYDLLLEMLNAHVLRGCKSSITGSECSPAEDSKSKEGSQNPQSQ
# UniProt P10275: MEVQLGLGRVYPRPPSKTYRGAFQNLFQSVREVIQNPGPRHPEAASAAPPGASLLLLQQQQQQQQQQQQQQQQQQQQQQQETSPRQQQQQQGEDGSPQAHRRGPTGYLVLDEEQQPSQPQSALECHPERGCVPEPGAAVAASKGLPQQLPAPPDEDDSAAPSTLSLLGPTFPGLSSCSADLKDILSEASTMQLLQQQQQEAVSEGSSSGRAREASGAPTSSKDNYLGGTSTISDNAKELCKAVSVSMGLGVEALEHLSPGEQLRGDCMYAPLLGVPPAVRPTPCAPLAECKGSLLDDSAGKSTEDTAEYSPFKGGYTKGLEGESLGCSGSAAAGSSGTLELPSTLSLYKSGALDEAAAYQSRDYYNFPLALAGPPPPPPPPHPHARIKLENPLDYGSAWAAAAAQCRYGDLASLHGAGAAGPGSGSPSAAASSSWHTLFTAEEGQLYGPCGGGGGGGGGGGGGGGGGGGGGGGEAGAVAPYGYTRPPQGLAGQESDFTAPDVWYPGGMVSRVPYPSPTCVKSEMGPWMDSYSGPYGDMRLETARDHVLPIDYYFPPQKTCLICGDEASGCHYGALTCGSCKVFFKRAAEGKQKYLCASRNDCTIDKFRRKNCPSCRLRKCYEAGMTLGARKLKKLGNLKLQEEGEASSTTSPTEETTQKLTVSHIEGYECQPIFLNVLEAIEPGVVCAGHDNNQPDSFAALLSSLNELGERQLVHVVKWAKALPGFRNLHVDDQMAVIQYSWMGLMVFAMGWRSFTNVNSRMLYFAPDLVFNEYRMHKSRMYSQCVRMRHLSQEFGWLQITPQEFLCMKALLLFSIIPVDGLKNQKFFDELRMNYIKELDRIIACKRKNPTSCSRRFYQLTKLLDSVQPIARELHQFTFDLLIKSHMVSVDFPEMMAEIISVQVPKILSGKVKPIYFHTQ
# Assays:
# [1] = molecular target: mouse Estrogen Receptor alpha (Era), Esr1 (gene 13982) (UniProt P19785); assay: NVS_NR_mERa: NovaScreen (NVS) Nuclear Receptor Binding Assay for mouse Estrogen Receptor alpha (Era) (AID 2283378);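 also: hit means loss of bound radioligand signal relative to DMSO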
# How it was run: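 Test chemicals competed against a specific radioligand for binding to cell-free mouse Era. Duplicate wells at 25 uM were read 18 hours later by filter-based radiodetection, with loss of signal against DMSO scored as activity.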
# [2] = molecular target: Bile acid receptor (Homo sapiens) (UniProt Q96RI1); assay: OT_FXR_FXRSRC1_0480: Odyssey Thera (OT) 8-hour HEK293T Protein-Complementation Assay for Farnesoid X receptor/SRC-1 Co-activator (AID 2283383)
# How it was run: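 Readings were taken 8 h after dosing HEK293T cells in a split-reporter complementation format pairing FXR with SRC-1. Increased fluorescence relative to DMSO-treated wells defined activity.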
# [3] = molecular target: Bile acid receptor (Homo sapiens) (UniProt Q96RI1); assay: OT_FXR_FXRSRC1_1440: Odyssey Thera (OT) 24-hour HEK293T Protein-Complementation Assay for Farnesoid X receptor/SRC-1 Co-activator (AID 2283384)
# How it was run: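 Single endpoint, analysed for increased fluorescence against DMSO controls. HEK293T cells carrying FXR and SRC-1 linked to complementary reporter halves were exposed to chemicals for 24 h before reading.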
# [4] = molecular target: Estrogen receptor beta (Homo sapiens) (UniProt Q92731); assay: OT_ER_ERbERb_1440: Odyssey Thera (OT) 24-hour HEK293T Protein-Complementation Assay for Estrogen Receptor-beta/-beta Homodimer (AID 2283380);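 also: fluorescence gain from ER beta LBD homodimer complementation read by laser scanning cytometry; scored as signal increase over DMSO baseline for both agonists and antagonists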
# How it was run: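 HEK293T cells stably expressing human ER-beta LBD (aa 310-547) PCA homodimer pair, dosed 24 h; formaldehyde-fixed, Draq5-stained. Readout: increase in nuclear (agonist) or nuclear plus cytoplasmic (antagonist) fluorescence intensity versus DMSO, gain-of-signal fitting.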
# [5] = molecular target: Agonist Androgen Response Element (ARE), AR (gene 367) (UniProt P10275); assay: OT_AR_ARELUC_AG_1440: Odyssey Thera (OT) 24-hour CHO-K1 Luciferase Assay for Agonist Androgen Response Element (ARE) (AID 2283379)
# How it was run: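 Luminescence increase above DMSO, read after a 24 h compound treatment of CHO-K1 cells expressing an androgen response element luciferase reporter, gives the single primary endpoint; concentration-response fitting used the positive direction.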
compound,measurement,setting,value
CCOC(=O)c1ccc(O)cc1,AC50,[1],inconclusive: 50 nM and inconclusive: 25 µM and inconclusive: 7.51 µM
same,AC50,[2],inconclusive: 500 nM and inconclusive: 12.7 µM and inconclusive: 50 µM
CC(=O)OC(C)C,outcome,[1],inactive
same,AC50,[2],inconclusive: 50 µM
same,AC50,[3],inconclusive: 50 µM
C[C@@H]1C[C@H]2[C@@H]3CCC4=CC(=O)C=C[C@]4(C)[C@@]3(F)[C@@H](O)C[C@]2(C)[C@@]1(O)C(=O)COP(=O)(O)O,AC50,[1],inconclusive: 12.9 µM
same,outcome,[1],inactive
CCCCCCCCn1sc(Cl)c(Cl)c1=O,AC50,[1],active: 25 µM
same,AC50,[4],inconclusive: 50 µM
same,AC50,[2],inconclusive: 91.8 µM
same,AC50,[3],inconclusive: 50 µM
CCc1ccccc1O,AC50,[1],inconclusive: 25 µM
same,AC50,[3],inconclusive: 50 µM
CC(C)=CCO,AC50,[1],inconclusive: 37.8 µM
O=S(=O)(O)c1cc(S(=O)(=O)O)c2c(N=Nc3ccccc3)c(O)ccc2c1,outcome,[2],inactive
CC(CC=O)CCCC(C)(C)O (configuration not stated),AC50,[5],inconclusive: 49.8 µM
O=C(O)c1ccccc1C(=O)OCc1ccccc1,AC50,[5],inconclusive: 50 µM
same,AC50,[2],inconclusive: 9.92 µM
CCCCCCC(C)(C)C(=O)O,outcome,[2],inactive
CN1CCN(c2ccccc2/C=C2\SCCN(c3ccc(Cl)c(Cl)c3)C2=O)CC1,AC50,[1],inconclusive: 39.7 µM
same,AC50,[2],inconclusive: 80.6 µM
CC(C)(C)c1cc(CCC(=O)OCC(COC(=O)CCc2cc(C(C)(C)C)c(O)c(C(C)(C)C)c2)(COC(=O)CCc2cc(C(C)(C)C)c(O)c(C(C)(C)C)c2)COC(=O)CCc2cc(C(C)(C)C)c(O)c(C(C)(C)C)c2)cc(C(C)(C)C)c1O,outcome,[1],inactive
same,outcome,[3],inactive
O=C1OC2(c3ccccc31)c1cc(Br)c(O)c(Br)c1Oc1c2cc(Br)c(O)c1Br,AC50,[1],inconclusive: 13.9 µM
same,outcome,[1],inactive
CCOCC(C)O (configuration not stated),AC50,[1],active: 35 µM
same,AC50,[2],inconclusive: 50 µM
CC=C1CC2C=CC1C2 (configuration not stated),outcome,[2],inactive
CC(C)=CCC[C@H](C)CCO,AC50,[5],active: 0.239 µM
O=C(c1ccccc1)c1ccc(O)cc1O,AC50,[1],active: 1.22 µM
same,outcome,[3],inactive
OC1CCCC1,AC50,[1],inconclusive: 0.696 µM
NCCCN1CCOCC1,AC50,[5],inconclusive: 50 µM
same,AC50,[3],inconclusive: 13.4 µM
COCC(C)OCC(C)OCC(C)O (configuration not stated),outcome,[5],inactive
same,AC50,[2],inconclusive: 50 µM
CCN(Cc1cccc(S(=O)(=O)O)c1)c1ccc(C(=C2C=CC(=[N+](CC)Cc3cccc(S(=O)(=O)O)c3)C=C2)c2ccccc2S(=O)(=O)[O-])cc1,outcome,[2],inactive
same,AC50,[3],inconclusive: 1.28 µM
CCCOC(=O)c1ccc(C(=O)OCCC)nc1,outcome,[2],inactive
CCCCCc1ccc(Cl)cc1,outcome,[2],inactive
CCCCCCCCOc1ccc(C(=O)c2ccccc2)c(O)c1,outcome,[3],inactive
CC(=O)CC(=O)N(C)C,AC50,[2],inconclusive: 50 µM
CCO[Si](CCCN)(OCC)OCC,AC50,[2],inconclusive: 17.5 µM
same,outcome,[3],inactive
C1=COCCC1,AC50,[3],inconclusive: 50 µM
COC(=O)CCC(=O)OC,outcome,[3],inactive
O=C(O)c1cccc(C(=O)O)c1,outcome,[3],inactive
O=C(O)c1[nH]n(-c2ccc(S(=O)(=O)O)cc2)c(=O)c1N=Nc1ccc(S(=O)(=O)O)cc1,AC50,[2],inconclusive: 47.2 µM
O=S(=O)(O)c1ccc2ccccc2c1,outcome,[2],inactive
same,outcome,[3],inactive
CCCCCCCCCCCCc1ccc(O)cc1,AC50,[2],inconclusive: 23.4 µM
same,AC50,[3],inconclusive: 92 µM
Cc1cc(CCN2CCN(c3nsc4ccccc34)CC2)cc2c1NC(=O)CC2(C)C,AC50,[2],inconclusive: 22.4 µM
c1ccc(Cc2ccccc2)cc1,AC50,[2],inconclusive: 2.11 µM
CC(=O)OCCC(C)CC(C)(C)C (configuration not stated),AC50,[2],inconclusive: 50 µM
same,outcome,[3],inactive
CC(C)c1cccc(C(C)C)c1,AC50,[3],inconclusive: 50 µM
CNC(=O)[C@H]1O[C@@H](n2cnc3c(NCc4cc(Cl)ccc4OCc4cc(C)no4)ncnc32)[C@H](O)[C@@H]1N,AC50,[3],inconclusive: 50 µM
O=C(O)CN(CC(=O)O)CC(=O)O,outcome,[2],inactive
Cc1ccc(C(C)(C)C)c(O)c1,AC50,[2],active: 60.6 µM
CC1(C)NC(=O)N(c2ccc([N+](=O)[O-])c(C(F)(F)F)c2)C1=O,AC50,[2],inconclusive: 0.0379 µM
same,outcome,[3],inactive
O=c1ccc2ccccc2o1,outcome,[2],inactive
Cc1cc(C)c(C)cc1C,AC50,[3],inconclusive: 50 µM
Cc1nn(C)c(Oc2ccccc2)c1C=NOCc1ccc(C(=O)OC(C)(C)C)cc1,AC50,[2],active: 7.14 µM
CC1=NN(c2cc(S(=O)(=O)O)ccc2Cl)C(=O)C1N=Nc1ccccc1 (configuration not stated),AC50,[2],inconclusive: 50 µM
CCO[Si](CCCNC(N)=O)(OCC)OCC,AC50,[2],inconclusive: 50 µM
c1ccc2occc2c1,AC50,[2],inconclusive: 50 µM
Cc1ccc([N+](=O)[O-])c(C)c1,AC50,[2],inconclusive: 50 µM
same,outcome,[3],inactive
c1ccc2c(c1)Cc1ccccc1-2,AC50,[3],inconclusive: 12.7 µM
CCOc1ccc2[nH]cc(C(=O)NCc3ccccc3)c(=O)c2n1,outcome,[3],inactive
OCCO,AC50,[2],inconclusive: 26.6 µM
CCOC(OCC)OCC,AC50,[2],inconclusive: 50 µM
CN(C)CCCN(C)CCCN(C)C,AC50,[2],inconclusive: 50 µM
CN(C)CCCN,AC50,[2],inconclusive: 1.66 µM
CCCCC(CC)COC(=O)CCCCC(=O)OCc1ccccc1 (configuration not stated),AC50,[2],inconclusive: 50 µM
Cc1ccc(C(C)C)cc1,AC50,[3],inconclusive: 50 µM
Cc1cccc2ccccc12,outcome,[2],inactive
same,AC50,[3],inconclusive: 2.95 µM
CC/C=C\CCOC(C)=O,AC50,[2],inconclusive: 9.92 µM
same,AC50,[3],inconclusive: 50 µM

# 24 entries from above, reformatted.
compound	measurement	setting	value
CCOC(=O)c1ccc(O)cc1	AC50	[1]	inconclusive: 50 nM and inconclusive: 25 µM and inconclusive: 7.51 µM
CCCCCCCCn1sc(Cl)c(Cl)c1=O	AC50	[2]	inconclusive: 91.8 µM
same	AC50	[3]	inconclusive: 50 µM
CCc1ccccc1O	AC50	[1]	inconclusive: 25 µM
same	AC50	[3]	inconclusive: 50 µM
CC(C)=CCO	AC50	[1]	inconclusive: 37.8 µM
O=S(=O)(O)c1cc(S(=O)(=O)O)c2c(N=Nc3ccccc3)c(O)ccc2c1	outcome	[2]	inactive
O=C(O)c1ccccc1C(=O)OCc1ccccc1	AC50	[2]	inconclusive: 9.92 µM
CN1CCN(c2ccccc2/C=C2\SCCN(c3ccc(Cl)c(Cl)c3)C2=O)CC1	AC50	[1]	inconclusive: 39.7 µM
CC=C1CC2C=CC1C2 (configuration not stated)	outcome	[2]	inactive
O=C(c1ccccc1)c1ccc(O)cc1O	AC50	[1]	active: 1.22 µM
COCC(C)OCC(C)OCC(C)O (configuration not stated)	outcome	[5]	inactive
CC(=O)CC(=O)N(C)C	AC50	[2]	inconclusive: 50 µM
CCO[Si](CCCN)(OCC)OCC	outcome	[3]	inactive
O=C(O)c1[nH]n(-c2ccc(S(=O)(=O)O)cc2)c(=O)c1N=Nc1ccc(S(=O)(=O)O)cc1	AC50	[2]	inconclusive: 47.2 µM
CCCCCCCCCCCCc1ccc(O)cc1	AC50	[3]	inconclusive: 92 µM
c1ccc(Cc2ccccc2)cc1	AC50	[2]	inconclusive: 2.11 µM
CC(=O)OCCC(C)CC(C)(C)C (configuration not stated)	AC50	[2]	inconclusive: 50 µM
same	outcome	[3]	inactive
Cc1ccc(C(C)(C)C)c(O)c1	AC50	[2]	active: 60.6 µM
O=c1ccc2ccccc2o1	outcome	[2]	inactive
CCO[Si](CCCNC(N)=O)(OCC)OCC	AC50	[2]	inconclusive: 50 µM
c1ccc2c(c1)Cc1ccccc1-2	AC50	[3]	inconclusive: 12.7 µM
CC/C=C\CCOC(C)=O	AC50	[2]	inconclusive: 9.92 µM

# Source: PubChem BioAssay (EPA / NIEHS)
